According to publication PMC5082931:
No constants are given. Whether binding was seen depends on the method and setting. Binding seen in cells or lysates may run through a third protein. Some results given as binding are weak or reduced against the parent protein; the word gives no strength. For some of these results: Where a sequence is shown, tags or fusion partners need not be part of it.

Chains of the proteins cited; added tags and fusions are not shown. Lines headed by an entry give the natural chain unless they say otherwise; changes in a name come on top. A line that says so, or that is headed by a name, gives the form on record, which may keep a tag or linker. Residues count along the entry.
P75-RFP (RFP-tagged P75 neurotrophin receptor) (P08138, residues 29-427): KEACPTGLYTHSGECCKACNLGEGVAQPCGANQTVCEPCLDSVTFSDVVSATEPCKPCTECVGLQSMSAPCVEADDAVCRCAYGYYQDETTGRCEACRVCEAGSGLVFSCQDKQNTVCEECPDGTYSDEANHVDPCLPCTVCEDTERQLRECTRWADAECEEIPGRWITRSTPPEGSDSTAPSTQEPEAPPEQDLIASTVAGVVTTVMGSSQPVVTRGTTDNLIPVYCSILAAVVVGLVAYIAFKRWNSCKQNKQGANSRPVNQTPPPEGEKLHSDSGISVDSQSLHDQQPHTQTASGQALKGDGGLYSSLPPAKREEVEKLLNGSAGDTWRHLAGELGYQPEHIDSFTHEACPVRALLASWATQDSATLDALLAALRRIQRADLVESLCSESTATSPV
P75-RFP^(Y/E) (P08138, form named): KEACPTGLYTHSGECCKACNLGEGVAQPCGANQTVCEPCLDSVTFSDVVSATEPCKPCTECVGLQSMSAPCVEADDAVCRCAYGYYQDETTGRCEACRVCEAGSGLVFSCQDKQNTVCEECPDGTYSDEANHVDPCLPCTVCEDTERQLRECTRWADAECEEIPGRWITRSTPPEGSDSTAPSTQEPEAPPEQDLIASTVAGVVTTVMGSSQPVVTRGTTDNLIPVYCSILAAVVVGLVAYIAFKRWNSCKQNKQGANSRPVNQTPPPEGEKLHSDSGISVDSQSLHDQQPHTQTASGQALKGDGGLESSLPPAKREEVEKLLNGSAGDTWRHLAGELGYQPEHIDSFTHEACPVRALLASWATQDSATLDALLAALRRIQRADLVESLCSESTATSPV
P75-RFP ^(Y/F) (P08138, form named): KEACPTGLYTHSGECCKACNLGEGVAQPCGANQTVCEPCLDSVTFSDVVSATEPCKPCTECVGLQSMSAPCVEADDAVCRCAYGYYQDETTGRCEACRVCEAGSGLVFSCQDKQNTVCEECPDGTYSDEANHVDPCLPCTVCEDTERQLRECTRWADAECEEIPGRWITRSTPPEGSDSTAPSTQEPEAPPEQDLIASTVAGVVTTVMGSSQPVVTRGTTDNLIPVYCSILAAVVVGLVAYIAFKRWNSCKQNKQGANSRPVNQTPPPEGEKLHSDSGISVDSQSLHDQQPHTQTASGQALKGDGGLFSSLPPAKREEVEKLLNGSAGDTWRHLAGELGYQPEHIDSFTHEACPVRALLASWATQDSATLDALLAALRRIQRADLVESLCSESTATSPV
UniProt P33176: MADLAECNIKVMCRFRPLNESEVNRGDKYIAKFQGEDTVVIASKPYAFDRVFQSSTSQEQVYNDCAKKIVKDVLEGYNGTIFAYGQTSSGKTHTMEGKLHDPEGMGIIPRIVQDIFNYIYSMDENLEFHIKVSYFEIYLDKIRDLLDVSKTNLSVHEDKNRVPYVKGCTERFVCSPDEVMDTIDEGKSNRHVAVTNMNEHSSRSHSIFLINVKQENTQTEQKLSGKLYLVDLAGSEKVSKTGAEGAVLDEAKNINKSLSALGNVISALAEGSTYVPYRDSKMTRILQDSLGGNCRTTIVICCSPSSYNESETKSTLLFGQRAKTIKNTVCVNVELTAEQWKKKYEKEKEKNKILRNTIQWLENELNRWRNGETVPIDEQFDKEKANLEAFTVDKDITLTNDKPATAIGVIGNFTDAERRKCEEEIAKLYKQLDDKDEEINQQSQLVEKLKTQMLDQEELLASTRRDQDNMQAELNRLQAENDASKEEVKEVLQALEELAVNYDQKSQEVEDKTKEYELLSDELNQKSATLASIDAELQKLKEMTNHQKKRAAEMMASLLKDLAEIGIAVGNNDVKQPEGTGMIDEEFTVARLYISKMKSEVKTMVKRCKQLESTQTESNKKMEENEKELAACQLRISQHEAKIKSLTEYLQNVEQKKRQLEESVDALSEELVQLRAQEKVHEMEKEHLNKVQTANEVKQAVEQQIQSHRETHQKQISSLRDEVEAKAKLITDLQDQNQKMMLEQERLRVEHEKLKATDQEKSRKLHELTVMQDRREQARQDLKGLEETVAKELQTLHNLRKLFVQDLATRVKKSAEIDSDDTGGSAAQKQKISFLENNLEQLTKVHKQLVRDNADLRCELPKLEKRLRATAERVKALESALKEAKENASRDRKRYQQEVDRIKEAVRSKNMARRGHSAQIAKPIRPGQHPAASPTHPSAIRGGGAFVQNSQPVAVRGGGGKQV
UniProt Q12756: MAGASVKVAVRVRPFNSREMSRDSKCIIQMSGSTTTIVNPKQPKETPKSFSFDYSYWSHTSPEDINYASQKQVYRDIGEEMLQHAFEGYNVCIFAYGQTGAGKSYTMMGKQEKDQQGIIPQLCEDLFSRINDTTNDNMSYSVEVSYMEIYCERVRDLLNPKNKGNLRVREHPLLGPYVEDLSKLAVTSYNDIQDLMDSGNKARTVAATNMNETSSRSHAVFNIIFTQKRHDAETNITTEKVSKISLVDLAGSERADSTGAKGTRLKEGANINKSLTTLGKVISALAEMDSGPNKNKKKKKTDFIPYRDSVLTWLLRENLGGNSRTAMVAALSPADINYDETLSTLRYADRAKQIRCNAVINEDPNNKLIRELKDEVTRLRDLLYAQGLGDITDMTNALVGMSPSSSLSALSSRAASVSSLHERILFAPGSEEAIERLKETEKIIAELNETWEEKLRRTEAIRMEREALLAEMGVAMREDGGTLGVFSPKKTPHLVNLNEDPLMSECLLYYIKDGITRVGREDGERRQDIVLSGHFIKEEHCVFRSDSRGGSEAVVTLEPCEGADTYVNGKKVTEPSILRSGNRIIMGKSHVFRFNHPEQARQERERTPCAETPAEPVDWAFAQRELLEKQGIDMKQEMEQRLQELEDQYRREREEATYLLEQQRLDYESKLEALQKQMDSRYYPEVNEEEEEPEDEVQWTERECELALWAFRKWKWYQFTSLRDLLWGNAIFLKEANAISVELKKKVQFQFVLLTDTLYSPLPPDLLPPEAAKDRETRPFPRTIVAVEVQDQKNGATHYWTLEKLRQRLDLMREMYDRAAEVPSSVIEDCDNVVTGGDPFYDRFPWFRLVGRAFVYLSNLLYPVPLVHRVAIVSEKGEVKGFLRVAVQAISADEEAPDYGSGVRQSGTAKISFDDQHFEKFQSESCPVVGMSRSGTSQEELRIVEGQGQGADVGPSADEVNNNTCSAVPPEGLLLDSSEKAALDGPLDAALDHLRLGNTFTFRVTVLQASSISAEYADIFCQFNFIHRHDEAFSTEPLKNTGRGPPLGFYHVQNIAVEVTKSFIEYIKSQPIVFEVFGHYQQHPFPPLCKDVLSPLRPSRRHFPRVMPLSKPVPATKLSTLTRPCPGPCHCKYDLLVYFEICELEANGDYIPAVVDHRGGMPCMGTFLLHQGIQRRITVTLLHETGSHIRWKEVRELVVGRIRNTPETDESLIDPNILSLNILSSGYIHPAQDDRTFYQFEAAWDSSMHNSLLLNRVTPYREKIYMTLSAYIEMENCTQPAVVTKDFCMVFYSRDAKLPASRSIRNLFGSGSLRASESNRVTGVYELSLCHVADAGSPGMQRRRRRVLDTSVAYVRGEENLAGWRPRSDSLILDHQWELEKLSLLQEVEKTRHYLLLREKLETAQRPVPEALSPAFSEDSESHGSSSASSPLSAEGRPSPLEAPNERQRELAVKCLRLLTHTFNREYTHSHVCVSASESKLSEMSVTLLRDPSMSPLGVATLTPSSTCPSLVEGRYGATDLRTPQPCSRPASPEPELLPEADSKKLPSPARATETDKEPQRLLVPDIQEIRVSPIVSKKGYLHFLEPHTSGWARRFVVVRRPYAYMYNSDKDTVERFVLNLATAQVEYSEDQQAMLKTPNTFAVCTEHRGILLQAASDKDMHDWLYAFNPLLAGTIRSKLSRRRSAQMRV
UniProt O88448: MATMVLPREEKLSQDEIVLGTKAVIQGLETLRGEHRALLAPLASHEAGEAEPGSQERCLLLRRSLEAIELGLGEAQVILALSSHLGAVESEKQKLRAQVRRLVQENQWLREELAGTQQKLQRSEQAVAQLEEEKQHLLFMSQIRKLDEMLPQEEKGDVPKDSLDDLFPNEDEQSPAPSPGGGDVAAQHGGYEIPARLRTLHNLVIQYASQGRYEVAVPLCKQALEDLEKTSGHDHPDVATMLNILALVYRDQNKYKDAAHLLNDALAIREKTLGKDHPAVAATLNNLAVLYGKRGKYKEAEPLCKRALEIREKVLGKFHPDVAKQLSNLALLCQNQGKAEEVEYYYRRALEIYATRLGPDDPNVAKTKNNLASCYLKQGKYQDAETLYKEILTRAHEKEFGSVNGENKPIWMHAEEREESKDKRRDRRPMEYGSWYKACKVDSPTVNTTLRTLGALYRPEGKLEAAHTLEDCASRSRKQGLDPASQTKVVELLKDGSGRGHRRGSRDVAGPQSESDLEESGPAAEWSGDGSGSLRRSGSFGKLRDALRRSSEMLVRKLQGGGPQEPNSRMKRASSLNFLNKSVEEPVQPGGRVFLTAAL

Tests used:
[1] = biological target: T1, GST-Fat3 (GST fused to the intact cytoplasmic domain of Fat3) (mouse) (UniProt Q8BNA6); assay: pull-down; GST-Fat3 fusion proteins expressed in HEK293 cells, cleared lysate (20mM Tris-HCl pH 8.0, 137mM NaCl, 2mM EDTA, 1% NP-40, 10% glycerol) on Glutathione Sepharose 4B for 2h at 4°C; endogenous co-purified proteins seen by silver staining (band identified by tandem mass spectrometry) and by Western …
T1 sequence: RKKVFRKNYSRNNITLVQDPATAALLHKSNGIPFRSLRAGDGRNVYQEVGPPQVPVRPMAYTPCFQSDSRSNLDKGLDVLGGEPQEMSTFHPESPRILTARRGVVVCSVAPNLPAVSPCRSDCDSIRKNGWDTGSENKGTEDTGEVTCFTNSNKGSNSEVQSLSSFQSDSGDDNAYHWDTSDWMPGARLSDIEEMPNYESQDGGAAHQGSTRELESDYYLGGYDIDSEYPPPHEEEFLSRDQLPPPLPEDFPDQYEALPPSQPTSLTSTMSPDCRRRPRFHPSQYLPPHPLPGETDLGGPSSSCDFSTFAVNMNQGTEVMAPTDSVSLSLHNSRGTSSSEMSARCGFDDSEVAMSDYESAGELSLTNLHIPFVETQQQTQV

[2] = biological target: P75-GFP phosphorylated at Y-308 (from pervanadate-treated HEK293 cells) (human) (UniProt P08138); assay: co-IP; HEK293 cells transfected with P75-GFP constructs, serum-deprived for 24 hours and exposed to 30μM pervanadate for 30 min; P75-GFP precipitated with goat anti-GFP antisera, Western blot for endogenous Kif5B
YFP-Kif5B = YFP-Kif5B (UniProt P33176); assay: co-IP; HEK293 cells co-transfected with YFP-Kif5B and HA-tagged Fat3 or RFP-tagged P75^NTR constructs; YFP-Kif5B precipitated with goat anti-GFP antibodies, overnight at 4°C, lysis buffer 50mM Tris-HCl pH 8.0, 150mM NaCl, 1mM EDTA, 1% NP-40, 10% glycerol; non-specific IgG as control
[3] = biological target: T1, GST-Fat3 (GST fused to the intact cytoplasmic domain of Fat3) (mouse); assay: pull-down; HEK293 cells co-transfected with mCherry-KLC2 and GST-Fat3 fusion proteins; GST pull-down, Western blot with dsRed antibodies

Substance	binding [1]	binding (YFP-Kif5B)	further results
Kif5B (endogenous, HEK293 cells) (from UniProt P33176 1-963)	binds		binding [2]: binds
P75-RFP^(Y/E) (from UniProt P08138 29-427) (receptor)		binds	
P75-RFP (RFP-tagged P75 neurotrophin receptor) (from UniProt P08138 29-427)		binds	
Kif1A (endogenous, HEK293 cells) (from UniProt Q12756 1-1690)	no binding		
mCherry-KLC2 (from UniProt O88448 1-599)			binding [3]: binds
P75-RFP ^(Y/F) (from UniProt P08138 29-427) (receptor)		binds	
